Measured values as given in PubChem BioAssay AID651664 (NMMLSC, 2012).
Out of some 1,800 compounds screened, fewer than 10 were called active.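 Rule for the calls: active = inhibition of granule release above a set limit; inactive = the rest.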 The list shows a part of the results.

assay: inhibitors of lytic granule exocytosis, flow cytometry, TALL-104 cells, validation set (AID 651664); details: TALL-104 LAMP-1 externalization, at 15.2 µM, stronger effect = higher value, stimulated with thapsigargin and PMA

inhibition, inactive:
COc1cccc2c(=O)cc(C)n(CC(=O)Nc3ccc(C)c(C)c3)c12 1.1%
COc1ccc(C2CCCN2C(=O)c2cccs2)cc1 (stereo not given) -2.5%
CCCN(CCC)Cc1cc2ccccc2c2c1COC2 6.5%
C[C@@H]1C[C@H](Nc2ccccc2)c2ccccc2N1C(=O)c1cccnc1 2.8%
O=C(Nc1ccc(N2CCOCC2)cc1)c1ccc(Cl)nc1 2.6%
O/N=C(\c1ccc(Cl)cc1Cl)c1ncc(C(F)(F)F)cc1Cl 1.2%
O=C1CCCC2=C1C(c1ccco1)Nc1ccc3ccccc3c12 (stereo not given) 2.9%
CCn1c2c(c3ccc(OC)cc31)CCCC2=O -1%
Cc1ccccc1OCC(=O)Nc1cccc(NC(=O)c2ccco2)c1 1.8%
CC1CCN(CC(=O)N2CCCc3c2c(=O)oc2ccc(OCc4ccccc4)cc32)CC1 -1.7%
CCOC(=O)c1nn(-c2ccccc2C)c2nc(-c3ccc(Cl)cc3)c(C#N)c(=O)n12 2.1%
CCOC(=O)CC1(C)NC(=O)c2c(C)sc(C(=O)OCC)c2N1 (stereo not given) 0.1%
COC(=O)/C(=C\Nc1ccc(Cl)cc1Cl)NC(=O)c1ccc(Cl)cc1Cl 3.3%
O=C(Cc1sc(-c2ccccc2)nc1-c1ccccc1)Nc1ccc(Cl)cc1 2.9%
Cc1ccc(-n2nc(C)c3cc(C(=O)O)sc32)cc1 5.6%
CCc1sc(N(C(=O)Cc2ccccc2)c2ccc(F)cc2)nc1-c1ccccc1 6.3%
CCCc1nnc(NC(=O)CNc2ccc(F)cc2)s1 3.5%
O=C(c1ccc(F)cc1)c1ccc(N2CCCC2)cc1 -4.5%
O=C(NCCCN1CCN(c2cccc(Cl)c2)CC1)C1CCC(=O)N1Cc1ccccc1Cl (stereo not given) 0.3%
Fc1ccc(Nc2nc(N3CCOCC3)c3ccccc3n2)cc1 1.6%
O=C(Cc1ccc(Cl)cc1)Nc1ccc(N2CCN(C(=O)c3ccco3)CC2)c(Cl)c1 14%
Cc1ccc(-c2nnc(CSc3nc(C(C)C)nc4sc(C)c(C)c34)o2)cc1 -1.3%
OCCN=c1cc(-c2ccccc2)oc2ccc(Cl)cc12 3.5%
Cc1ccc(C(=O)Cn2cnc3ccccc3c2=O)cc1C 6.9%
COc1cc(NC(=O)CN2c3cccc4cccc(c34)S2(=O)=O)cc(OC)c1OC 2.7%
CN(Cc1cnn(C)c1)C(=O)c1cc2ccccc2oc1=O -4.1%
O=C(Nc1ccccc1C(=O)O)c1ncn[nH]1 0.2%
O=C(NNC(=S)Nc1ccccc1)c1ccncc1 3.4%
COc1ccc(C(=O)c2ccc(N3CCN(C(=O)c4ccc(F)cc4)CC3)c(F)c2)cc1Br -2.8%
CN(c1cc(=O)n2ccccc2n1)C1CCCCC1 50.5%
Cc1ccc(C(=O)CCC(=O)Nc2cccc(C(F)(F)F)c2)cc1C 0.9%
O=C(Nc1scc(-c2ccc(F)cc2)c1C(=O)O)c1ccco1 -1.6%
CCC1=[N+](C)CCn2c(C)ccc21 -1.8%
Cc1occc1C(=O)Nc1ccc2ccccc2c1 0.2%
Cc1c(Cl)cccc1NC(=O)c1cc(-c2ccccc2O)n[nH]1 0.4%
CCCS(=O)(=O)N1CCCC(C(=O)NCCCOC(C)C)C1 (stereo not given) 1.9%
O=C(OCC(=O)N1CCCc2ccccc21)c1ccc(Br)o1 -1.9%
O=C1C2C3CCC(C3NCc3ccccc3)C2C(=O)N1Cc1ccccc1 (stereo not given) 2.1%
CCCCn1c(-c2nn(C)c(C)c2Cl)n[nH]c1=S 1.2%
COc1ccc(C(=O)C(CCCCC(CN(C)C)C(=O)c2ccc(OC)cc2)CN(C)C)cc1 (stereo not given) 0.3%
CCOC(=O)C1=C(NC(=S)NC(=O)c2ccccc2)c2ccccc2CC1(C)C 2.1%
Cc1nn(C(=O)CN2C(=O)c3ccccc3C2=O)c(C)c1Br 11.9%
CC(=O)c1cc2c(cc1NC(=O)CN1CCN(c3ccc(F)cc3)CC1)OCO2 2.7%
Cc1cccc2cc3c(NC(=O)CC(C)C)nn(C)c3nc12 3.1%
Cn1nc(C(F)(F)F)c2cc(C(=O)NC3CC3)sc21 -2.5%
CSc1sc(C(=O)O)c(C)c1C(C)=O -3.7%
CCNC(=O)CC1C(=O)N(C)C(=S)N1NC(=O)c1ccc(Cl)cc1 (stereo not given) -1.3%
COCCCNC(NC(=O)c1ccc(C)cc1)C(Cl)(Cl)Cl (stereo not given) 0.2%
Cc1csc(NC(=O)Cc2coc3cc(C)c(C(C)C)cc23)n1 -2.3%
COc1ccc(O)c(-c2cc(-c3cccc(Br)c3)n[nH]2)c1 2.3%
Cc1ccc(C)c(-c2nc3cc(N)ccc3o2)c1 0.2%
O=C(c1ccc2ncsc2c1)N1CCN(c2ccc(O)cc2)CC1 0.5%
Cc1ccc(NC2OC(C(O)CO)C(O)C2O)cc1[N+](=O)[O-] (stereo not given) -4.3%
O=C(O)C1C2CCC(C2)C1C(=O)NCc1ccccn1 (stereo not given) 0.2%
C(=C\c1ccccc1)/C=N/Nc1nc(N2CCCCC2)nc(N2CCCCC2)n1 -2.3%
Cc1csc2nc(CNC(=O)c3ccco3)cn12 0.2%
CC(C)Oc1nnnn1-c1ccccc1 0.1%
Cc1c(NC(=O)C2CC=CCC2C(=O)O)c(=O)n(-c2ccccc2)n1C (stereo not given) -0.1%
[O-]C1=N/[N+](=C/c2ccccc2Cl)CC1 -2.2%
O=Cc1cn(-c2ccccc2)nc1-c1ccc2c(c1)OCCO2 0%
CSC1=C(C#N)C(CC(C)C)C2=C(CCCC2=O)N1 (stereo not given) -1.6%
Cc1ccc(C(=O)N/N=C/c2cc(C)n(-c3ccc(Br)cc3)c2C)cc1[N+](=O)[O-] 4.1%
CCC(C)[C@H](NC(=O)Nc1ccc(Oc2ccccc2)cc1)C(=O)O (stereo not given in full) -1.6%
Cc1csc(SCC(=O)Nc2sc3c(c2C#N)CCC3)n1 -1.7%
C/C(=C(\C#N)C(=O)NCc1ccccc1)N(C)C -0.4%
Cc1cc(C(F)(F)F)nn1CC(=O)Nc1cccnc1 -2.8%
COC(=O)c1cc(COC(=O)c2ccc(OC)c(S(=O)(=O)N3CCCC3)c2)oc1C 1.5%
O=C(Nc1cccc2ncccc12)c1ccc2c(c1)OCCO2 0.7%
COCC(=O)Nc1nc(-c2ccc(C)cc2)c(C)s1 -2.2%
CC(C)(C)C(=O)N1CCc2cc(-c3csc(N)n3)ccc21 -0.2%
Cc1ccc2nc3c(cc2c1)c(NS(=O)(=O)c1ccccc1)nn3CC(C)C -2%
O=C(NCC1c2ccccc2CCN1C(=O)CN1CCOCC1)C1CCCCC1 (stereo not given) -1.8%
O=C(c1ccc2c(c1)C(=O)N(c1ccc(Cl)cc1)C2=O)N1CCN(c2ccccn2)CC1 -5.2%
O=c1c2cnn(-c3ccc(F)cc3)c2ncn1Cc1ccccc1 -2.1%
O=C(CCOc1ccccc1)N1CCN(S(=O)(=O)c2cccs2)CC1 -2.8%
CCNC(=S)NNC(=O)Cc1ccccc1 2.1%
CCCNc1nc(NCC)nc(OC)n1 -1.6%
CCn1c(N)c(C(=O)NCc2ccco2)sc1=S -0.7%
COc1ccc2nc(NC(=O)CCn3cccc3)sc2c1 -2.5%
c1ccc2nc(-c3nc4ccccc4[nH]3)ccc2c1 0.9%
Oc1ccc(-c2nc3ccccn3c2NCc2ccco2)cc1 -1.4%
COc1ccc(C(=O)Cn2c(=O)c(CCC(=O)O)nn3c4ccccc4nc23)cc1OC -3.1%
O=C(NC1CC2CCC1C2)C1CCN(S(=O)(=O)c2ccc(-c3nn[nH]n3)cc2)CC1 (stereo not given) -2.4%
OC(CN1C2=NCCN2c2ccccc21)c1ccc2c(c1)OCO2 (stereo not given) -4.2%
COc1cc(CC(=O)OCC(=O)c2ccc3c(c2)OCCO3)cc(OC)c1OC 0.6%
O=C(CN1CCN(S(=O)(=O)c2ccc3ccccc3c2)CC1)N1CCc2ccccc2C1 -1.3%
CC(C)=CC(=O)OCC(=O)Nc1ccc(F)cc1Cl -1.7%
O=C(Nc1ccccc1)N1CCN(c2ccccn2)CC1 -1.4%
CO/N=C\C(=N\Nc1ccc(OC)cc1)C(=O)c1ccccc1 0.8%
CS/C(=C\[N+](=O)[O-])Nc1ccccc1 0.5%
O=C(Nc1ccc(-n2cnnn2)cc1)C1CCCCC1 -1.5%
CCN(CC)CCOC(=O)c1cccc(Cl)c1 -2.3%
COc1ccccc1NC(=O)CCN1CC(C)OC(C)C1 (stereo not given) 1.4%
COc1ccc(S(=O)(=O)N(C)c2c(C)n(C)n(-c3ccccc3)c2=O)cc1OC 0.6%
O=C(C(Cc1ccccc1)N1C(=O)c2ccccc2C1=O)N1CCc2ccccc21 (stereo not given) 1.6%
CN(Cc1ccccc1)C(=O)CCSc1nc(-c2ccc3c(c2)OCO3)cc(C(F)(F)F)n1 -0.3%
CC(=O)NC1=NN(C(C)=O)C(C)(CS(=O)(=O)c2ccc3ccccc3c2)S1 (stereo not given) 1.1%
Nc1cc(=O)[nH]c(SCCNS(=O)(=O)c2ccccc2)n1 -1.4%
Cc1ccc(-c2nc3ncccn3c2NC(=O)C2CC2)cc1 0.8%
CC1(C)Cc2c(sc3ncn(N)c(=N)c23)CO1 1.3%

For reference, part of the list above:
inhibition, inactive:
C/C(=C(\C#N)C(=O)NCc1ccccc1)N(C)C -0.4%
Cc1cc(C(F)(F)F)nn1CC(=O)Nc1cccnc1 -2.8%
COC(=O)c1cc(COC(=O)c2ccc(OC)c(S(=O)(=O)N3CCCC3)c2)oc1C 1.5%
O=C(Nc1cccc2ncccc12)c1ccc2c(c1)OCCO2 0.7%
COCC(=O)Nc1nc(-c2ccc(C)cc2)c(C)s1 -2.2%
CC(C)(C)C(=O)N1CCc2cc(-c3csc(N)n3)ccc21 -0.2%
